At least one compound was matched to its structure with a doubt left.
Experiments:
u-PAR mRNA [1] = test: Northern blot of u-PAR mRNA in A549 cells; assay type: cell-based, human; conditions: 48 hours, PMA 150 nM, mEGF 20 ng/ml, TGF-β1 7.5 ng/ml, dexamethasone 10^−6 M
Protocol: (§1) The cells were seeded at 0.5×10^6/ml in DMEM and grown to confluence, washed in PBS^+ and kept under serum-free conditions for 48 hours followed by no additions (1, 6), by addition of Dex (10^−6M) (2, 7) PMA (150 nM) (3, 8) mEGF (20 ng/ml) (4, 9) and TGF-β1, (7.5 ng/ml) (5, 10) for 48 hours. After incubation, both the adherent and the non-adherent cells were collected, pooled, and total RNA was isolated as described in Materials and Methods. For the Northern blot analyses, 30 μg of total RNA were electrophoresed in 1.5% agarose gels under denaturing conditions and blotted onto a nitrocellulose filter. The filters were hybridized to a random primed labeled u-PAR cDNA probe. The positions of the ribosomal RNA in the Northern are indicated to the left.
(§2) The human histiocytic lymphoma cell line U937 (American Type Culture Collection (ATCC), CRL 1593) was obtained from Dr. A. Fattorssi (Research Lab. of Aeronautica Militare, Rome, Italy) and cultured in RPMI 1640 medium with 10% heat inactivated fetal calf serum and 2 mM L-glutamine at a density of 0.5×10^6 cells/ml at the onset of the experiment. […]
(§3) Total cellular RNA was isolated from the cells as described by Chomczynsky and Sacchi (1987). The RNA was analyzed by hybridizing Northern blots as described (Lund et al., 1987), except that random primed labelled plasmid probes were used. […]

u-PAR mRNA [2] = test: Northern blot of u-PAR mRNA in RD cells; assay type: cell-based, human; conditions: 48 hours, PMA 150 nM, mEGF 20 ng/ml, TGF-β1 7.5 ng/ml, dexamethasone 10^−6 M
Protocol: as §1, §2, §3

C[C@@H]1C[C@H]2[C@@H]3CCC4=CC(=O)C=C[C@]4(C)[C@@]3(F)[C@@H](O)C[C@]2(C)[C@@]1(O)C(=O)CO [Dexamethasone, dexamethasone]
u-PAR mRNA level (u-PAR mRNA [1]): only in RD cells | u-PAR mRNA level (u-PAR mRNA [2]): increased

Reference: US20030027981A1, “Urokinase-type plasminogen activator receptor” (priority 1989, published 2003)
